Reference: paper PMC7550539
These are yes or no findings as the source states them, for the method shown. In cells and extracts the contact can be indirect. Some entries that bind do so weakly or less than the wild type.

Amino acid sequences for entries named in this document (tags omitted). A change or cut given only in a name is not applied to a line headed by its entry.
UniProt Q09472: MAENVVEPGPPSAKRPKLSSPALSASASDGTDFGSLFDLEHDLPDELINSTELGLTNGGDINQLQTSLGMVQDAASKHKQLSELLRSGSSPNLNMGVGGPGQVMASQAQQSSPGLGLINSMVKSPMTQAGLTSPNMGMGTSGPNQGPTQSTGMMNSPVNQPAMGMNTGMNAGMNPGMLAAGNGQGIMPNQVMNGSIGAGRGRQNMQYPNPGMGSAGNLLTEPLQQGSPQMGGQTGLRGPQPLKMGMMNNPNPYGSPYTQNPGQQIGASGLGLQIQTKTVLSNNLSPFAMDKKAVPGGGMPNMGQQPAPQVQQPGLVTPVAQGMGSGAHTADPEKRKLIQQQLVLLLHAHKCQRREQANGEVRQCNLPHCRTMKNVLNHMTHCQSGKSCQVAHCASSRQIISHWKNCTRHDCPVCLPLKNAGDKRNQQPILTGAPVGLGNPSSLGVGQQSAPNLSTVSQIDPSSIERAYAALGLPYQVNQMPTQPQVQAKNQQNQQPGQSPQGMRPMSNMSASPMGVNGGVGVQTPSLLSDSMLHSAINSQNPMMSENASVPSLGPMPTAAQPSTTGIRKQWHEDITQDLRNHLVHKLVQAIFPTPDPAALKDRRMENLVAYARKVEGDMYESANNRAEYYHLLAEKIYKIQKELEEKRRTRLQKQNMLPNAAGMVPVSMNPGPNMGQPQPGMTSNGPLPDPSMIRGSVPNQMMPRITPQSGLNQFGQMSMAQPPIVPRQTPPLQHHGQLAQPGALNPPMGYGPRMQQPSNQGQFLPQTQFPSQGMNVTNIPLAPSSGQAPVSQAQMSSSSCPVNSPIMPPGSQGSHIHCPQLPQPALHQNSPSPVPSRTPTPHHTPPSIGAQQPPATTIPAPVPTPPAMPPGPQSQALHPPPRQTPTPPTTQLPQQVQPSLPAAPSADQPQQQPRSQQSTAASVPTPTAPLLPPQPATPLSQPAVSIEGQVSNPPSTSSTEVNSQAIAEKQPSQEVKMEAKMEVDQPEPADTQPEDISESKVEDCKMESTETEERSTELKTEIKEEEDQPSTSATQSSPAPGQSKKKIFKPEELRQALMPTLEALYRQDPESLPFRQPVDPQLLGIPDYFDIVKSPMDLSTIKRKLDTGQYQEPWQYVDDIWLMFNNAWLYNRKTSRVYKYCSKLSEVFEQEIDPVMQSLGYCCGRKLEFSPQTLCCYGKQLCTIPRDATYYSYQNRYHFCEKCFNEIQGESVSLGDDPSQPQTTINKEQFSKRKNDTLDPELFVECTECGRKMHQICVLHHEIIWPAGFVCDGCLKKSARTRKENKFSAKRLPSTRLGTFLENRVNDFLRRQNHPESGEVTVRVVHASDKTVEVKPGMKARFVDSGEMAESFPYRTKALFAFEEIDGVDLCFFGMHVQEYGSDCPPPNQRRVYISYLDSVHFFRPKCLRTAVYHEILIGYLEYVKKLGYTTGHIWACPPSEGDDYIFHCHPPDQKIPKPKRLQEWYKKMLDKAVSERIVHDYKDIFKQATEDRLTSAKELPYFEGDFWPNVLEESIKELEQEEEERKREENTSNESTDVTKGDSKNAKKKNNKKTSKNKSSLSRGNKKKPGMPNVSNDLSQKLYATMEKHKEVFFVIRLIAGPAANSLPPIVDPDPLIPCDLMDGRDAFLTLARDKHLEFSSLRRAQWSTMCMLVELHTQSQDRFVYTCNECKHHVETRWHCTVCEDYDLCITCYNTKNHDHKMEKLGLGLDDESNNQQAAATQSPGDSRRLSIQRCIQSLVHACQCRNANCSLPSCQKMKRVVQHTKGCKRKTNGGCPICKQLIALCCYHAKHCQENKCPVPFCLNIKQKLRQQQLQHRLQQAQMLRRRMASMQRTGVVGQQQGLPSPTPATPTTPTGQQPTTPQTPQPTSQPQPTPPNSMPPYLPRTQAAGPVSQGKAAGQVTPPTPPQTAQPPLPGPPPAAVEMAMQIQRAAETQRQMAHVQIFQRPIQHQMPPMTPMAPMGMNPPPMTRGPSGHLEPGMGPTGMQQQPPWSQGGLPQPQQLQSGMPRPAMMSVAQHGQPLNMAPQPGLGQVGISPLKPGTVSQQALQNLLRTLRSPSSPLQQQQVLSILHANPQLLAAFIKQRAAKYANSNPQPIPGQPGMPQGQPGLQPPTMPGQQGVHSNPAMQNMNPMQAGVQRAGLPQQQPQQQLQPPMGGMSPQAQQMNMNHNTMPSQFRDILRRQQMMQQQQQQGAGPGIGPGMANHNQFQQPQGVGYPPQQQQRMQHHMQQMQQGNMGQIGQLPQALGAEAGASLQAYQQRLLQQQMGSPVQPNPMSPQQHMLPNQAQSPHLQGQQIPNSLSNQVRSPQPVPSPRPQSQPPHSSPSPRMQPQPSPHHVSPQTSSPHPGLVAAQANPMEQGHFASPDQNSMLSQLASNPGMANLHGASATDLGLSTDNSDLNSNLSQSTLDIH

Target: E1A binding protein p300 (p300) (UniProt Q09472)
Test: co-IP; Jurkat cells overexpressing CTCF and p300; RIPA lysis buffer; 2 ug anti-CTCF or anti-p300 antibody overnight at 4°C; protein A/G PLUS-agarose beads 2 h at 4°C; Western blotting with anti-CTCF and anti-p300

B1: CCCTC-binding factor (CTCF) (protein, UniProt P49711 1-727)
chain: MEGDAVEAIVEESETFIKGKERKTYQRRREGGQEEDACHLPQNQTDGGEVVQDVNSSVQMVMMEQLDPTLLQMKTEVMEGTVAPEAEAAVDDTQIITLQVVNMEEQPINIGELQLVQVPVPVTVPVATTSVEELQGAYENEVSKEGLAESEPMICHTLPLPEGFQVVKVGANGEVETLEQGELPPQEDPSWQKDPDYQPPAKKTKKTKKSKLRYTEEGKDVDVSVYDFEEEQQEGLLSEVNAEKVVGNMKPPKPTKIKKKGVKKTFQCELCSYTCPRRSNLDRHMKSHTDERPHKCHLCGRAFRTVTLLRNHLNTHTGTRPHKCPDCDMAFVTSGELVRHRRYKHTHEKPFKCSMCDYASVEVSKLKRHIRSHTGERPFQCSLCSYASRDTYKLKRHMRTHSGEKPYECYICHARFTQSGTMKMHILQKHTENVAKFHCPHCDTVIARKSDLGVHLRKQHSYIEQGKKCRYCDAVFHERYALIQHQKSHKNEKRFKCDQCDYACRQERHMIMHKRTHTGEKPYACSHCDKTFRQKQLLDMHFKRYHDPNFVPAAFVCSKCGKTFTRRNTMARHADNCAGPDGVEGENGGETKKSKRGRKRKMRSKKEDSSDSENAEPDLDDNEDEEEPAVEIEPEPEPQPVTPAPPPAKKRRGRPPGRTNQPKQNQPTAIIQVEDQNTGAIENIIVEVKKEPDAEPAEGEEEEAQPAATDAPNGDLTPEMILSMMDR
binding: binds
